Results deposited as PubChem BioAssay AID743454 (Peter MacCallum Cancer Centre, 2014).

Aim: 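Search for knock-downs that restore vorinostat killing in resistant colon cancer cells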 (primary screen)
Cells: human HCT116-VR colon cancer cells, selected for vorinostat resistance
Reagent: siRNA pool against human genes, 40 nM siRNA pool
Timing: vorinostat for 24 h, read-out about 72 h after transfection
Treatment: vorinostat at 2.5 µM final
Measured: 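Cell viability by CellTiter-Fluor and caspase 3/7 activity by luminescence, each scaled to mock wells per plate, duplicates averaged, then robust z-scored over all plates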
Direction: viability robust z-score: higher = more viable cells than screen typical; caspase robust z-score: higher = more caspase 3/7 activity than screen typical
Rule for the call: 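a knock-down is a hit when classed RV1 or RV2 for lowered viability, or CA1 or CA2 for caspase activation; those lethal without drug were dropped; hits were retested singly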
Here is one part, drawn at random, of about 18,000 reagents tested. 450 of them (2.5%) count as active. 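Single biological run; no consistent viability z cut-off exists, so the class columns, not z-scores, define the calls.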

viability hit class | caspase hit class | viability robust z-score | caspase robust z-score | Outcome | gene knocked down
no change | no change | 0.47 | -0.76 | inactive | NDC1 (NDC1 transmembrane nucleoporin)
no change | no change | -0.05 | -1 | inactive | DRC11 (dynein regulatory complex subunit 11)
no change | no change | 0.42 | -0.56 | inactive | HIBCH (3-hydroxyisobutyryl-CoA hydrolase)
no change | no change | -2.64 | -1.09 | inactive | CUX2 (cut like homeobox 2)
no change | no change | -2.3 | 0.11 | inactive | LRRN1 (leucine rich repeat neuronal 1)
no change | no change | 0.76 | 0.76 | inactive | EIF4ENIF1
no change | no change | -0.09 | 0.4 | inactive | ANPEP (alanyl aminopeptidase, membrane)
no change | no change | 1.1 | 0.54 | inactive | PDE6C (phosphodiesterase 6C)
no change | no change | -0.12 | -0.2 | inactive | GOLGA5 (golgin A5)
no change | no change | -0.14 | -1.29 | inactive | CLNK (cytokine dependent hematopoietic cell linker)
no change | no change | 0.78 | -0.74 | inactive | FGF5 (fibroblast growth factor 5)
no change | no change | -1.02 | -0.02 | inactive | DOCK5 (dedicator of cytokinesis 5)
no change | no change | 0.09 | -0.95 | inactive | H2AC25 (H2A clustered histone 25)
no change | no change | -1.5 | -0.85 | inactive | C4B (complement C4B (Chido/Rodgers blood group))
no change | CA1 (caspase activation) | -1.23 | 5.99 | active | MRPS11 (mitochondrial ribosomal protein S11)
no change | no change | 1.27 | -0.46 | inactive | FOXR1 (forkhead box R1)
no change | no change | 1.17 | 0.9 | inactive | HSD17B12 (hydroxysteroid 17-beta dehydrogenase 12)
no change | no change | 0.06 | -0.89 | inactive | ZNF419 (zinc finger protein 419)
no change | CA1 (caspase activation) | -1.04 | 7.6 | active | H1-5 (H1.5 linker histone, cluster member)
no change | no change | 1.07 | 0.66 | inactive | FANCF (FA complementation group F)
no change | no change | -0.45 | 0.5 | inactive | SNAP25 (synaptosome associated protein 25)
no change | no change | 1.64 | -0.14 | inactive | MCMDC2 (minichromosome maintenance domain containing 2)
no change | no change | -1.67 | -0.97 | inactive | CLHC1 (clathrin heavy chain linker domain containing 1)
no change | no change | 0.58 | -0.7 | inactive | AARS2 (alanyl-tRNA synthetase 2, mitochondrial)
no change | no change | -0.76 | 1.29 | inactive | CDX1 (caudal type homeobox 1)
no change | no change | -0.14 | 1.32 | inactive | FAM114A1 (family with sequence similarity 114 member A1)
no change | no change | 0.34 | 1.34 | inactive | UGT2B11 (UDP glucuronosyltransferase family 2 member B11)
no change | no change | 0.27 | 2.29 | inactive | H2AB3 (H2A.B variant histone 3)
no change | no change | 0.95 | -0.32 | inactive | SFR1 (SWI5 dependent homologous recombination repair protein 1)
no change | no change | 0.03 | -0.74 | inactive | TAS2R20 (taste 2 receptor member 20)
no change | no change | 0.48 | -0.78 | inactive | SOAT1 (sterol O-acyltransferase 1)
no change | no change | 0.79 | -0.72 | inactive | ZNF343 (zinc finger protein 343)
no change | no change | -0.96 | -0.85 | inactive | H2BC5 (H2B clustered histone 5)
no change | no change | -0.52 | -0.84 | inactive | ANKRD35 (ankyrin repeat domain 35)
no change | no change | -0.2 | 1.25 | inactive | PIGQ (phosphatidylinositol glycan anchor biosynthesis class Q)
no change | no change | 0.7 | 0.11 | inactive | APOA5 (apolipoprotein A5)
no change | no change | -0.18 | -0.5 | inactive | RAD54B (RAD54 homolog B)
no change | no change | 0.55 | 0.05 | inactive | OR10A3 (olfactory receptor family 10 subfamily A member 3)
no change | no change | -0.4 | 0.59 | inactive | STXBP2 (syntaxin binding protein 2)
no change | no change | 0.8 | 0.48 | inactive | FFAR1 (free fatty acid receptor 1)
no change | no change | -0.69 | 1 | inactive | SLAMF8 (SLAM family member 8)
no change | no change | 1.52 | 0.34 | inactive | PEDS1-UBE2V1 (PEDS1-UBE2V1 readthrough)
no change | no change | 1.25 | 0.58 | inactive | RMC1 (regulator of MON1-CCZ1)
no change | no change | 0.26 | -0.16 | inactive | BMP4 (bone morphogenetic protein 4)
no change | no change | -0.76 | -0.76 | inactive | PIGT (phosphatidylinositol glycan anchor biosynthesis class T)
no change | CA2 (caspase activation) | -1.1 | 5.43 | active | CYP7A1 (cytochrome P450 family 7 subfamily A member 1)
no change | no change | 0.36 | 1.48 | inactive | GNL1 (G protein nucleolar 1)
no change | no change | 0.88 | 2.25 | inactive | APRT (adenine phosphoribosyltransferase)
no change | no change | -0.59 | 1.23 | inactive | TMEM134 (transmembrane protein 134)
no change | no change | -1.62 | -0.21 | inactive | OR56A3 (olfactory receptor family 56 subfamily A member 3)
no change | no change | -2.25 | -0.82 | inactive | MAPK1 (mitogen-activated protein kinase 1)
no change | no change | 0.33 | 1.21 | inactive | PAMR1
no change | no change | 0.62 | 0.28 | inactive | BRF2 (BRF2 general transcription factor IIIB subunit)
no change | no change | 1.62 | -0.05 | inactive | NDUFA2 (NADH:ubiquinone oxidoreductase subunit A2)
no change | no change | 0.03 | -0.47 | inactive | MMP16 (matrix metallopeptidase 16)
no change | no change | -0.62 | 2.07 | inactive | BIRC7 (baculoviral IAP repeat containing 7)
no change | no change | 0.32 | -0.07 | inactive | MRPL15 (mitochondrial ribosomal protein L15)

Just “caspase hit class”, for 8 of the entries above:
AARS2 (alanyl-tRNA synthetase 2, mitochondrial) = no change
CDX1 (caudal type homeobox 1) = no change
FAM114A1 (family with sequence similarity 114 member A1) = no change
UGT2B11 (UDP glucuronosyltransferase family 2 member B11) = no change
H2AB3 (H2A.B variant histone 3) = no change
SFR1 (SWI5 dependent homologous recombination repair protein 1) = no change
TAS2R20 (taste 2 receptor member 20) = no change
SOAT1 (sterol O-acyltransferase 1) = no change
